These are yes or no findings as the source states them, for the method shown. Binding seen in cells or lysates may run through a third protein. Some binding calls cover weakened binding; strength is not graded here.
Target: ACSL4-GST (UniProt O60488)
Assay: pull-down; GST pull down Assay Kit (FI88807, FITGENE) by the manufacturer's protocol; ACSL4-GST and GST control plasmids; in MDA-MB-231 cells

Protein sequences, listed by entry. Tags and fused reporters are not part of them.
UniProt O60488: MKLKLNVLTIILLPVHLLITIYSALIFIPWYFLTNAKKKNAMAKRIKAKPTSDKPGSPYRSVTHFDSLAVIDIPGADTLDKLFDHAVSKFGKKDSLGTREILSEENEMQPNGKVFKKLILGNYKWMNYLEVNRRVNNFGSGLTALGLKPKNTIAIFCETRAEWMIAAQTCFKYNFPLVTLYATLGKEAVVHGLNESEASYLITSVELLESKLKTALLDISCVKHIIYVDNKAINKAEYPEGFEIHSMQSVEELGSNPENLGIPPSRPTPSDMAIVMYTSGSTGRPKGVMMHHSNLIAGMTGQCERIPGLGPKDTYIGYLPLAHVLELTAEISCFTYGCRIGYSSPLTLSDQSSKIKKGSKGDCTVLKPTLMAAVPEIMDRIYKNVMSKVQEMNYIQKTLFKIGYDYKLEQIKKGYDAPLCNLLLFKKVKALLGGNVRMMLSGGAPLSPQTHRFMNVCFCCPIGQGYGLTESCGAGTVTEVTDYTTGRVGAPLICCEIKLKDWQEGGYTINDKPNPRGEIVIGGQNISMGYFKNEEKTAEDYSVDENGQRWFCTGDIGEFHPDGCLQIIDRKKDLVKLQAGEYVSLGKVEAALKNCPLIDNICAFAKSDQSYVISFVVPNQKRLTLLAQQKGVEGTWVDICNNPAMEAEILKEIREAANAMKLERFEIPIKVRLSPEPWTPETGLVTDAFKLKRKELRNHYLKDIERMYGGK

binding: binds
B1: ZEB2 (endogenous, MDA-MB-231) (protein, UniProt O60315 1-1214)
chain: MKQPIMADGPRCKRRKQANPRRKNVVNYDNVVDTGSETDEEDKLHIAEDDGIANPLDQETSPASVPNHESSPHVSQALLPREEEEDEIREGGVEHPWHNNEILQASVDGPEEMKEDYDTMGPEATIQTAINNGTVKNANCTSDFEEYFAKRKLEERDGHAVSIEEYLQRSDTAIIYPEAPEELSRLGTPEANGQEENDLPPGTPDAFAQLLTCPYCDRGYKRLTSLKEHIKYRHEKNEENFSCPLCSYTFAYRTQLERHMVTHKPGTDQHQMLTQGAGNRKFKCTECGKAFKYKHHLKEHLRIHSGEKPYECPNCKKRFSHSGSYSSHISSKKCIGLISVNGRMRNNIKTGSSPNSVSSSPTNSAITQLRNKLENGKPLSMSEQTGLLKIKTEPLDFNDYKVLMATHGFSGTSPFMNGGLGATSPLGVHPSAQSPMQHLGVGMEAPLLGFPTMNSNLSEVQKVLQIVDNTVSRQKMDCKAEEISKLKGYHMKDPCSQPEEQGVTSPNIPPVGLPVVSHNGATKSIIDYTLEKVNEAKACLQSLTTDSRRQISNIKKEKLRTLIDLVTDDKMIENHNISTPFSCQFCKESFPGPIPLHQHERYLCKMNEEIKAVLQPHENIVPNKAGVFVDNKALLLSSVLSEKGMTSPINPYKDHMSVLKAYYAMNMEPNSDELLKISIAVGLPQEFVKEWFEQRKVYQYSNSRSPSLERSSKPLAPNSNPPTKDSLLPRSPVKPMDSITSPSIAELHNSVTNCDPPLRLTKPSHFTNIKPVEKLDHSRSNTPSPLNLSSTSSKNSHSSSYTPNSFSSEELQAEPLDLSLPKQMKEPKSIIATKNKTKASSISLDHNSVSSSSENSDEPLNLTFIKKEFSNSNNLDNKSTNPVFSMNPFSAKPLYTALPPQSAFPPATFMPPVQTSIPGLRPYPGLDQMSFLPHMAYTYPTGAATFADMQQRRKYQRKQGFQGELLDGAQDYMSGLDDMTDSDSCLSRKKIKKTESGMYACDLCDKTFQKSSSLLRHKYEHTGKRPHQCQICKKAFKHKHHLIEHSRLHSGEKPYQCDKCGKRFSHSGSYSQHMNHRYSYCKREAEEREAAEREAREKGHLEPTELLMNRAYLQSITPQGYSDSEERESMPRDGESEKEHEKEGEDGYGKLGRQDGDEEFEEEEEESENKSMDTDPETIRDEEETGDHSMDDSSEDGKMETKSDHEEDNMEDGM
